No constants are given. Whether binding was seen depends on the method and setting. For part of these data: Binding seen in cells or lysates may run through a third protein. Some entries that bind do so weakly or less than the wild type. Tags and fused reporters may be left off the sequences shown. Values belong to the binder of their own block, whether it stands above or below them.
Columns and labels:
[1] = biological target: T1, ATP9A, tagged at the C-terminus with HA or FLAG (UniProt O75110); experiment: co-IP
T1 sequence: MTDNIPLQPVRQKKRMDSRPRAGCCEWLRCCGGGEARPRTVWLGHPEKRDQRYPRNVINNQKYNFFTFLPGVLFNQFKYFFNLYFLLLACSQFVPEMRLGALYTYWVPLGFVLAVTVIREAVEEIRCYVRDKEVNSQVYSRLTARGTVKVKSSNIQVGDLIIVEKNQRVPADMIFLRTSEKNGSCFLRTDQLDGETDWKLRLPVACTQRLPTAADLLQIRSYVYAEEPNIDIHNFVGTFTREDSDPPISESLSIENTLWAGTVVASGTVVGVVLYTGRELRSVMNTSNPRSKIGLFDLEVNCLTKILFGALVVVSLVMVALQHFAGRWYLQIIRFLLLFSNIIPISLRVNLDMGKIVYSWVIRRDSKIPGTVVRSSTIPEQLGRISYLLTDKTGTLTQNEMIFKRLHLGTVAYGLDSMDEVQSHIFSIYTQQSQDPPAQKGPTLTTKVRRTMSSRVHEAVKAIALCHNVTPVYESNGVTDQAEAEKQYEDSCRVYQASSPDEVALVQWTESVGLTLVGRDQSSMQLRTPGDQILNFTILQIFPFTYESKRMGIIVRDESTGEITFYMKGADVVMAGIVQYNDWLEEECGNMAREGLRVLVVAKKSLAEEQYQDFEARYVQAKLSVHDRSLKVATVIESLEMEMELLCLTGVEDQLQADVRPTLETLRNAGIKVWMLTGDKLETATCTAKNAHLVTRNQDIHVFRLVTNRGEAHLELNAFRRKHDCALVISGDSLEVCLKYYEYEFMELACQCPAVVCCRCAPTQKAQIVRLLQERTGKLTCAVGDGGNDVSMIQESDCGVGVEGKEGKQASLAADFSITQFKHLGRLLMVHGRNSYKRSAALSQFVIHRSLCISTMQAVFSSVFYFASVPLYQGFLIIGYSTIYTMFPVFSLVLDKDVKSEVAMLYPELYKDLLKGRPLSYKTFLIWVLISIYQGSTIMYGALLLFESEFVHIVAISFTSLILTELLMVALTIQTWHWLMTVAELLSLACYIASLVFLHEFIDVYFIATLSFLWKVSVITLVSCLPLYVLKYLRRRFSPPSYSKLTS

[2] = biological target: T2, ATP9B, tagged at the C-terminus with HA or FLAG (UniProt O43861); experiment: co-IP
T2 sequence: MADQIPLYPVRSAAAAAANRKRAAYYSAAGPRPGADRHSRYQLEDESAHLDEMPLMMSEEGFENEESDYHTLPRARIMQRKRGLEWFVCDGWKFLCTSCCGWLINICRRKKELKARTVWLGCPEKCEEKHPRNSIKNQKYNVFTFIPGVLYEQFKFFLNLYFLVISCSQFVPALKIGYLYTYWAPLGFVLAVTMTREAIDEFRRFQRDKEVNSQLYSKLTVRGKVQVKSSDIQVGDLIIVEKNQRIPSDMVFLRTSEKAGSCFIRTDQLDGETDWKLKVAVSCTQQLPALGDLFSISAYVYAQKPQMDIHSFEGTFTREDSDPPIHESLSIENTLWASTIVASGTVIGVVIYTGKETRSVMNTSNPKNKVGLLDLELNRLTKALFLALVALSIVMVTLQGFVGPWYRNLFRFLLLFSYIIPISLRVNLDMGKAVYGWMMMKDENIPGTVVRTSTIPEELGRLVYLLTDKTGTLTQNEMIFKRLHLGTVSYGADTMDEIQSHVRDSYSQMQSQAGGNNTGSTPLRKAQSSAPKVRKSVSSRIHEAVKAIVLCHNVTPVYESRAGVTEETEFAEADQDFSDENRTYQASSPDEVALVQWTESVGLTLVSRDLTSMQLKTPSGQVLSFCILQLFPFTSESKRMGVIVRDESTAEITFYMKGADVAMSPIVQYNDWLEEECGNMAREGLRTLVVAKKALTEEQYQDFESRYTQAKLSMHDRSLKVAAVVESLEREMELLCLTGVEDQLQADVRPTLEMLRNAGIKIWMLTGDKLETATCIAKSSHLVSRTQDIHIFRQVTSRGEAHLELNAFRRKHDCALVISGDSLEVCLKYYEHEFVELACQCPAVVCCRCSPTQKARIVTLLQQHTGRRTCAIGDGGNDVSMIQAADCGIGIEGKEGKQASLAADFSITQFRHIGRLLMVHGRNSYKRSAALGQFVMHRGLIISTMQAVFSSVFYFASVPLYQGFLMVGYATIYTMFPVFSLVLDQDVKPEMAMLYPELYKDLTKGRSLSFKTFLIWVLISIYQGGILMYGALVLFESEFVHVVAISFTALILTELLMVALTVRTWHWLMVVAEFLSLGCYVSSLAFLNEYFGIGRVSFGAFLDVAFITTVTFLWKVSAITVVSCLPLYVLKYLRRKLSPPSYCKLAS

[3] = biological target: T2, ATP9B, tagged at the C-terminus with HA or FLAG; experiment: native gel or EMSA
[4] = biological target: T1, ATP9A, tagged at the C-terminus with HA or FLAG; experiment: native gel or EMSA

binding [1]: binds
binding [2]: binds
binding [3]: binds
B1: ATP9B, tagged at the C-terminus with HA or FLAG (protein, UniProt O43861 1-1147)
chain: T2 sequence

binding [1]: binds
binding [2]: binds
binding [4]: binds
B2: ATP9A, tagged at the C-terminus with HA or FLAG (protein, UniProt O75110 1-1047)
chain: T1 sequence
